PubChem BioAssay AID720505, Drosophila RNAi Screening Center – 2013
In all, the deposit lists about 20,000 reagents; shown is an unselected part of those with a known target gene and a result. In the full data, about 2,100 (10%) got an active call. 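Raw plate signals without normalisation; calls rest on control-based scores that were not deposited; replicate 2 separates called from uncalled poorly.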 A plus sign joins genes that one reagent is predicted to hit. Reagent sequences are not shown. Not given: the amount of reagent, the time to read-out.

- Purpose: 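Genes needed for store-operated calcium entry in fly cells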 (primary screen)
- Cells: Drosophila S2R+ cells
- Reagents: long dsRNA against Drosophila genes
- Conditions: thapsigargin (2 µM) in calcium-free buffer to empty internal stores, then 2 mM calcium added back
- Read-out: 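Fluo-4 signal in 384-well plates read on a FLIPR after thapsigargin (2 µM, calcium-free) store depletion and 2 mM calcium add-back; unnormalised mean endpoint per well; screen run twice, selected wells retested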
- Reading the numbers: calcium signal and retest calcium signal: higher = more calcium entry after store depletion
- Active means: 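About 1500 genes called as lowering calcium entry, by varying amounts, judged against per-plate control wells with STIM1 as positive and Rho1 as negative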
- Meaning of the calls: active = called as lowering calcium entry; inactive = not called

Target gene	dsRNA	calcium signal, replicate 1	calcium signal, replicate 2	retest calcium signal, replicate 1	retest calcium signal, replicate 2	Outcome
Atg9	DRSC06848	184	92.7			inactive
Sxl	DRSC18721	119	98.7			inactive
Sxl	DRSC18722	215	179			inactive
Sxl	DRSC21490	149	88.5			inactive
CG32235	DRSC23257	110	97.6			inactive
CLS	DRSC15642	158	140			inactive
Nepl14	DRSC15631	168	199			inactive
Ccp84Ag	DRSC12592	171	157			inactive
Ccp84Ag	DRSC22085	91.3	204			inactive
Rfx	DRSC16820	138	127			inactive
Sf3a2	DRSC09801	90.2	80.4			inactive
Usp32	DRSC10979	97.5	128			inactive
lbe	DRSC16985	190	113			inactive
CG4982	DRSC10465	101	133			inactive
fru	DRSC16951	197	153			inactive
fru	DRSC16952	198	111	10996	137	inactive
fru	DRSC16953	184	125	7194	144	inactive
fru	DRSC21600	137	100			inactive
CG13476	DRSC10019	155	191			inactive
asRNA:CR43259 + CG31089	DRSC15934	309	167			inactive
Nup93-1	DRSC19344	76.4	55			active
Ccdc56 + mtTFB1	DRSC10809	95.7	113	73.8	92.1	inactive
Eig71Ea	DRSC11148	69.5	165			inactive
Cyt-b5	DRSC07392	170	89.2			inactive
mRpS26	DRSC10823	102	165			inactive
GstZ2	DRSC16479	131	122			inactive
CG5418	DRSC02857	120	167			inactive
CG6959	DRSC16151	178	115			inactive
CG11779	DRSC14384	139	191			inactive
comr	DRSC04138	161	112			inactive
CG8675	DRSC20117	76.4	106			active
CG14820	DRSC10191	121	84.6			inactive
CG17168	DRSC20904	46.4	124			active
Vps33B	DRSC15722	73.9	106			inactive

Hits, of those listed so far:
Target gene	dsRNA	calcium signal, replicate 1	calcium signal, replicate 2	retest calcium signal, replicate 1	retest calcium signal, replicate 2	Outcome
Nup93-1	DRSC19344	76.4	55			active
CG8675	DRSC20117	76.4	106			active
CG17168	DRSC20904	46.4	124			active
